We go through one substance from publication PMC2673211, “Nitric oxide activates ATP-sensitive potassium channels in mammalian sensory neurons: action by direct S-nitrosylation” (Molecular Pain, 2009).

The test system of this series is DRG neurons. Put plainly: Intracellular ATP concentration by luciferin-luciferase assay. Conditions: 10 minutes after stimulation with SNAP 100 μM. The format is cell-based, rat.

With S-nitroso-N-acetylpenicillamine [SNAP], the “intracellular ATP concentration” value is, setting by setting: (SNL rats, n = 6) 0.47 ± 0.19 nmol/g protein; (SS rats, n = 5) 0.48 ± 0.14 nmol/g protein.
